Laboratory results as given in PubChem BioAssay AID1259415 (National Center for Advancing Translational Sciences (NCATS), 2018).
In all, about 410,000 compounds went through this assay and about 18,000 (4.4%) were called active. Inconclusive results, whose numbers are uncertain, are shown with a selection of clear calls. Cut-off read from the data, not from the text of the source: active = activity change below about -60%; inconclusive = no clear call, values can overlap the other calls; inactive = above about -39%.

assay: qHTS Assay for inhibitors of the human cytomegalovirus (HCMV); conditions: HFF cells, HCMV-luciferase reporter, 72 h; at 57.5 µM; active compounds read low
Summary of the method: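 Human foreskin fibroblasts infected with luciferase-reporter HCMV at MOI 1 PFU/cell, compounds at two doses. Luciferase measured 72 h post infection; normalized to buffer-only basal and Salinomycin (10uM) controls.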
% is set by controls: 0 for no effect and ±100 for the full control effect.

Compound	activity change, negative = inhibition
CCOC(=O)C1CCN(S(=O)(=O)c2ccc(Cl)cc2)CC1	inconclusive: -54.5%
C=CCSc1nc(-c2ccc(OC)cc2)c(C#N)c(=O)n1CC=C	inconclusive: -45.2%
COC(=O)C1=NNC2C(=O)N(C3CCCCC3)C(=O)C12 (stereo unspecified)	inactive: -26%
O=C1OCCC1Sc1nnc(-c2ccccc2Br)n1Cc1ccccc1 (stereo unspecified)	inconclusive: -46.3%
COc1cccc(-n2c(N)c(C#N)c3ccc([N+](=O)[O-])cc3c2=O)c1	inconclusive: -52.6%
O=C(O)c1cc(N2C(=O)C3C4C=CC(C4)C3C2=O)ccc1N1CCOCC1 (stereo unspecified)	inconclusive: -43%
COc1ccc(S(=O)(=O)c2cnc3ccc(OC)cc3c2N2CCC3(CC2)OCCO3)cc1	active: -73.6%
Cc1nc2ccccc2c(=O)n1-c1ccc(NC(=O)c2ccc([N+](=O)[O-])cc2)cc1	inactive: -21.1%
Cc1nn(C)c(C(=O)N/N=C/c2ccc(-c3ccccc3)cc2)c1Cl	inconclusive: -55.9%
Cn1c(=O)c2c(nc(NC3CCCC3)n2C)n(C)c1=O	inactive: -38.9%
CCN(CC)c1ccc(NC(=O)c2cc(S(=O)(=O)N3CCc4ccccc43)cn2C)c(C)c1	inconclusive: -45.4%
COc1ccc(C[C@H]2CN3C(=NC[C@H]3Cc3ccccc3)N2CCNC(=O)CCC2CCCCC2)cc1	inconclusive: -46.4%
CONC(=O)c1ccc(-c2cccc3nccn23)cc1	inactive: 14%
O=C(C[n+]1cn(C(F)F)c2ccccc21)c1ccc(OC(F)F)cc1	inconclusive: -56.2%
COc1ccc(S(=O)(=O)N2CCCC(C(=O)NCc3ccccc3)C2)cc1 (stereo unspecified)	inconclusive: -46.8%
COc1ccc(OC)c(S(=O)(=O)N2CCC(C(=O)N3CCCCCC3)CC2)c1	inconclusive: -51.4%
Cc1ccccc1OCC(=O)N(Cc1ccc(N(C)C)cc1)CC1CCCO1 (stereo unspecified)	active: -62.7%
O=C(Nc1nc(-c2ccc(Cl)cc2)cs1)NC1CCCCC1	inconclusive: -48.1%
O=c1[nH]c2ccccc2n1CCCSc1cnc2ccccc2n1	inconclusive: -52.2%

Compound	activity change, negative = inhibition
c1ccc2c(Nc3nc(-c4ccncc4)nc4ccccc34)cccc2c1	inactive: 84.8%
CC(=O)N1c2ccccc2C(=O)C1N1CCN(c2cccc(C(F)(F)F)c2)CC1 (stereo unspecified)	inconclusive: 0%
C/C(=N\NC(=S)NCc1ccccc1)c1ccc(C)o1	active: -107%
Cc1ccc(/C=C/C(=O)N2CCCC(C)C2)cc1 (stereo unspecified)	inactive: 36.5%
Cc1ccc(NS(=O)(=O)c2c(C)nc3sccn3c2=O)cc1C	inconclusive: -59.5%
O=C(c1ccc(=O)oc1)N1CCN(C(c2ccccc2)c2ccccc2)CC1	inactive: 13.9%
COc1ccccc1N(CC(=O)Nc1ccc(C)c(Cl)c1)S(=O)(=O)c1ccc(C)cc1	inconclusive: -43.9%
O=S1(=O)CCC(NC2CCCC2)C1 (stereo unspecified)	inconclusive: -54%
CC1CCCN(C(=O)CN(C)S(=O)(=O)c2cccc3nsnc23)C1 (stereo unspecified)	inconclusive: -43.2%
CCC1CCCCN1S(=O)(=O)c1ccc(NC(=O)c2ccncc2)cc1 (stereo unspecified)	inconclusive: -55.6%
COc1ccc(OC)c(NC(=O)c2ccc(N3C(=O)C4CC=C(C)CC4C3=O)cc2)c1 (stereo unspecified)	inconclusive: -44.6%
Cc1ccccc1S(=O)(=O)N1CCN(c2ccc3c(c2)C2CC3CCN2C(=O)OCc2ccccc2)CC1 (stereo unspecified)	inconclusive: -55.6%
Cc1ccc(C)c(NC(=O)CSc2nc(=O)n(Cc3ccccn3)c3c2CCC3)c1	inactive: 1.52%
O=C(N/N=C/c1cccc2cccnc12)c1ccccc1O	active: -103%
COc1ccc(NS(=O)(=O)c2cccc(C(=O)N/N=C/c3c(F)c(F)c(F)c(F)c3F)c2)cc1	inconclusive: -56.7%
CCOC(=O)c1[nH]c(C)c(CCC(=O)NCc2ccccc2C)c1C	inactive: -16.4%
COc1ccc(N2CCN(S(=O)(=O)c3c(C)[nH]c(C)c3C(=O)N3CCCC3)CC2)cc1	inconclusive: 0%
O=C1COc2ccc(C(=O)COC(=O)c3ccccc3[N+](=O)[O-])cc2N1	inconclusive: -41.2%
O=C(N/N=C\c1ccc(Cl)cc1)C1=NOC2COC3(CCN(c4ccc([N+](=O)[O-])cc4)CC3)OCC12 (stereo unspecified)	inconclusive: -53.1%

Part of the list above, with each value named.
O=C(N/N=C/c1cccc2cccnc12)c1ccccc1O
  activity change, negative = inhibition: active: -103%
COc1ccc(NS(=O)(=O)c2cccc(C(=O)N/N=C/c3c(F)c(F)c(F)c(F)c3F)c2)cc1
  activity change, negative = inhibition: inconclusive: -56.7%
CCOC(=O)c1[nH]c(C)c(CCC(=O)NCc2ccccc2C)c1C
  activity change, negative = inhibition: inactive: -16.4%

Next results:

Compound	activity change, negative = inhibition
Cc1nn(C(=O)c2cccc(F)c2)c(C)c1S(=O)(=O)N1CCCCCC1	active: -91.2%
Cc1ccc(NC(=O)CSc2ncnc3c2sc2ccccc23)cc1C	inactive: 5.12%
CCCN1CCN(CCCNC(=O)Cn2c(-c3cccs3)cc3ccccc32)CC1	inconclusive: -42.1%
CCCc1cc(C(=O)Nc2cccc(Cl)c2)no1	inconclusive: -41.5%
CCN(CC)c1nn2c(=O)c(C(=O)NCc3cccc(C)c3)cnc2s1	inactive: -15.6%
O=C(c1cccs1)N1CCC(C(=O)N2CCN(Cc3ccc4c(c3)OCO4)CC2)CC1	inconclusive: -44.7%
CCCOc1nc2c(c(=O)n(C)c(=O)n2C)n1Cc1cccc2ccccc12	active: -90.9%
COc1ccc(-c2[nH]ncc2N=Nc2ccccc2)cc1	inconclusive: -59.9%
COc1ccc(-c2cc3nc(-c4ccc(Br)cc4)cc(C(F)(F)F)n3n2)cc1	inactive: 8.34%
COc1ccc(CCNC(=O)c2cccc(-n3c(C)nc4cccnc43)c2)cc1OC	inconclusive: 0%
CCc1ccc(CNc2ccc(N3CCN(C(C)=O)CC3)cc2)cc1	active: -79.8%
N#Cc1nc(-c2ccco2)oc1N1CCN(c2ccccc2)CC1	active: -64.6%
COc1ccc(Cn2c(=O)[nH]c3cc(C(=O)Nc4ccccc4C)ccc32)cc1	inconclusive: -46.1%
Cc1ccc(S(=O)(=O)N(C)C)cc1NC(=O)c1ccc(OC(F)(F)F)cc1	inactive: 2.88%
O=C1OC(CO)CN1Cc1ccccc1 (stereo unspecified)	inconclusive: -53.5%
Cc1nc2sccn2c(=O)c1S(=O)(=O)NCc1ccc(F)cc1	inactive: 4.68%
CCCN1C(=O)c2ccccc2NC1c1ccc(Br)cc1 (stereo unspecified)	inactive: -9.15%
Cc1ccc(C(=O)N2CCN(Cc3ccc4c(c3)OCO4)CC2)cc1[N+](=O)[O-]	inconclusive: -54.7%
